Laboratory results taken from article PMC10656286.

By UniProt entry, the sequences of proteins in these tests, tags left out. Where a name states a change or a piece, a line headed by the entry shows the natural chain unless it says otherwise.
UniProt Q96CT2: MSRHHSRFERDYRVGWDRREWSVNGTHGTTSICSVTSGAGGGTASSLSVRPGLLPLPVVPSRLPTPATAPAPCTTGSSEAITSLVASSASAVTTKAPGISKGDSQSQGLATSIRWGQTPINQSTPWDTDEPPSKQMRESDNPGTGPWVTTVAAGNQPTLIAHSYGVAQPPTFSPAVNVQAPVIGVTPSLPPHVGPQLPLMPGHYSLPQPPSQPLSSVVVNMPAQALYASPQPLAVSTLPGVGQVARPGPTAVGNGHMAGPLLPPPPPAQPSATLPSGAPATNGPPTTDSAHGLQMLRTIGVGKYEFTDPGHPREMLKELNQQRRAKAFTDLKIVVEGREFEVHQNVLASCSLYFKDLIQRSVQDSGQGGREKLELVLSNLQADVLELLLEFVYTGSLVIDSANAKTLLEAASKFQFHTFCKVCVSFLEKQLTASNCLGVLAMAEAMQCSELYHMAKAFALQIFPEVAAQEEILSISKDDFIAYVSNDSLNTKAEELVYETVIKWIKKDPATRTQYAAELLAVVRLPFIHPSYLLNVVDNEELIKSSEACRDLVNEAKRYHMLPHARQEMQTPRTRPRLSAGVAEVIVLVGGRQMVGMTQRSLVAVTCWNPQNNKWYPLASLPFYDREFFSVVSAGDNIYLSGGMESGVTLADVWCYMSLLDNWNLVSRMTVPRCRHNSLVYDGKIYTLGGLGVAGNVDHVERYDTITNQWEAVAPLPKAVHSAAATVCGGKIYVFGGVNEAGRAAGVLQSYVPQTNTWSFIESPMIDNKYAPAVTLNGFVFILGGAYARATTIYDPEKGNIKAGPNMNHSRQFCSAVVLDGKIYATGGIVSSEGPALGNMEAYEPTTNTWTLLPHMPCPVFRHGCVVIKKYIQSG
UniProt O00571: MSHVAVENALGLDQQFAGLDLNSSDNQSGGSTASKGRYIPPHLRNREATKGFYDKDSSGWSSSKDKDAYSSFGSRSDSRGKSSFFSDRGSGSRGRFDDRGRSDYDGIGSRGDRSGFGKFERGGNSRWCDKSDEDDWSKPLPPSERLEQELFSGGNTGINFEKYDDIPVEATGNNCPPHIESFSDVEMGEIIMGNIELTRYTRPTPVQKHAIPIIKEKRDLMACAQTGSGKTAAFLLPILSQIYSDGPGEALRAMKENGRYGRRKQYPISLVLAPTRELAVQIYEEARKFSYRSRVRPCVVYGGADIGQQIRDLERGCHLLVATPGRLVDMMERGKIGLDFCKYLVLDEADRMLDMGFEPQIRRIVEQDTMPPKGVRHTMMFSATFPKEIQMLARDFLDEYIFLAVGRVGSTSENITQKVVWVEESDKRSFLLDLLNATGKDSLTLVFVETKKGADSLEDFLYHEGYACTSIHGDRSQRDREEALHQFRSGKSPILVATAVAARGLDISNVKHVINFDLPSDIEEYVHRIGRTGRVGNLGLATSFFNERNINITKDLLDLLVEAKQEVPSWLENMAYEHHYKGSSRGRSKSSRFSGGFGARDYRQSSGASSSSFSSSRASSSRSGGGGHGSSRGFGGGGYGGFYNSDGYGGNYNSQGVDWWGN

Target: Flag-KLHL29-ΔBTB (UniProt Q96CT2)
Assay: co-IP; HEK293T cells transfected with tagged plasmids; whole-cell lysates immunoprecipitated with anti-tag antibody (anti-Flag or anti-Myc), western blotting

binding: binds
Substance: Myc-DDX3X (from UniProt O00571 1-662)

These are yes or no findings as the source states them, for the method shown. In cells and extracts the contact can be indirect. Binding calls can cover weak binding; strength is not graded here.
